Here are results for 1 molecule from paper PMC5963871.

Chains of the proteins cited; added tags and fusions are not shown.
UniProt Q9VW15: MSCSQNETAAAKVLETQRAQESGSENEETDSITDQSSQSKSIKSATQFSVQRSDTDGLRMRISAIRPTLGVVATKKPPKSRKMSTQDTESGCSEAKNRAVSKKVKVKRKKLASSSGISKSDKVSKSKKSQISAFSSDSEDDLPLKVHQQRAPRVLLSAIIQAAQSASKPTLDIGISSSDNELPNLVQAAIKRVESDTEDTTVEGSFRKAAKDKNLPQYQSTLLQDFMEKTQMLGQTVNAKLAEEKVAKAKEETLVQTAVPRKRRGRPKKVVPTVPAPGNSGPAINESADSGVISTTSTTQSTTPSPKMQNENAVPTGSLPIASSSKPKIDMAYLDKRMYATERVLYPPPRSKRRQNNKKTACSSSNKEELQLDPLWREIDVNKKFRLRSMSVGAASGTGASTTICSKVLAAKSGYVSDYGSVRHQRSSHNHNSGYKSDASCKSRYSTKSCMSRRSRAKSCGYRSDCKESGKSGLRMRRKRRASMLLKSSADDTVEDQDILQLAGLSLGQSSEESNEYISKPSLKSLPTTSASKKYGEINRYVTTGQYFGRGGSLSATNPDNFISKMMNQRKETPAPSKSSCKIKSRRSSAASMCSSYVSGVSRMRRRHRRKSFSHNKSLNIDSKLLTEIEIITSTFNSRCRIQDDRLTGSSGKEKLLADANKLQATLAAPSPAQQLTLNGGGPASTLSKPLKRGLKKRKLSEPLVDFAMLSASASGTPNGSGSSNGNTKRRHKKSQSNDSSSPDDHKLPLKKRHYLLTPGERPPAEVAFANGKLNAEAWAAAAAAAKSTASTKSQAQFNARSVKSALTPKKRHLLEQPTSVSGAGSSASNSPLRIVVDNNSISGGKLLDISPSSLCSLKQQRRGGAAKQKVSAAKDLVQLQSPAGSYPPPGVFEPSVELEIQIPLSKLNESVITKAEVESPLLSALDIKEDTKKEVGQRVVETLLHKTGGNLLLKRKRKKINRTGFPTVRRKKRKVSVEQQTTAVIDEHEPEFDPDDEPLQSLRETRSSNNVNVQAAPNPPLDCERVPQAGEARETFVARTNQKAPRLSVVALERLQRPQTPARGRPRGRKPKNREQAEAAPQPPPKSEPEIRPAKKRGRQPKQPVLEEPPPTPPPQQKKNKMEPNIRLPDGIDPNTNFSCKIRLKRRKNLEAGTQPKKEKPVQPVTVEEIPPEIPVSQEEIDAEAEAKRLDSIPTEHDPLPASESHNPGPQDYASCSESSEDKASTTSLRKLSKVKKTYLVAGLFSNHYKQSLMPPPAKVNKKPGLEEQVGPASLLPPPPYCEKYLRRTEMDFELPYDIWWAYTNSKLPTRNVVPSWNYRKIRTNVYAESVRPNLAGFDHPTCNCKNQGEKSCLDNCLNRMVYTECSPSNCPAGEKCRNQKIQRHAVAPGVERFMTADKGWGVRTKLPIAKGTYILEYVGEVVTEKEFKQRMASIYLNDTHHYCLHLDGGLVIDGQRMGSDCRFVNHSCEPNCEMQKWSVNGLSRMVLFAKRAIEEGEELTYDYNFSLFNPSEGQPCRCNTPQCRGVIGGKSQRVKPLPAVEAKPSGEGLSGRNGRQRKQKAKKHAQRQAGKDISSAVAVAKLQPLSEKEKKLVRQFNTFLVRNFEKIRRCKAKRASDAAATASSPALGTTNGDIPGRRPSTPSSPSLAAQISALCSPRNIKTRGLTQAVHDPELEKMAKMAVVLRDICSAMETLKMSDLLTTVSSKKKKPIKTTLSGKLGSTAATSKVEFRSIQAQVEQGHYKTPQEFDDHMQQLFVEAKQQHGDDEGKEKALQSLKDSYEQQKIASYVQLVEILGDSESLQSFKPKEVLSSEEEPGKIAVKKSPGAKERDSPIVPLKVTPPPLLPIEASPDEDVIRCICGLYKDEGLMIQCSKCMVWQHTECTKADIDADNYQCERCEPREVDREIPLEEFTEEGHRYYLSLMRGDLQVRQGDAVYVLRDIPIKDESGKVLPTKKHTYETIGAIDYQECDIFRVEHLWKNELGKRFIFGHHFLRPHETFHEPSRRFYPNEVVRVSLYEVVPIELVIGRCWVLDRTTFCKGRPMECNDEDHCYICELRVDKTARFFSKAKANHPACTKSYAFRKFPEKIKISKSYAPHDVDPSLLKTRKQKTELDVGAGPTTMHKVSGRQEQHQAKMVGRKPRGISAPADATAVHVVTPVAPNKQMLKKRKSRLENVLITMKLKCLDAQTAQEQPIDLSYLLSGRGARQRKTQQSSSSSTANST

One assay addresses Ash1-CTAP (Drosophila) (UniProt Q9VW15). As to the kind of experiment: affinity purification with mass spectrometry; tandem affinity purification (TAP) of NTAP-Ash1 or Ash1-CTAP from Drosophila embryonic nuclear extracts; eluates from calmodulin beads separated on 4-12% gels; iBAQ quantification against mock TAP from wild type.
A further assay concerns the target NTAP-Ash1 (Drosophila) (UniProt Q9VW15). Described as above.

Results are given in words; binding and its absence hold for the method and conditions named. In cells and extracts the contact can be indirect. Here binding means that the protein was enriched with, or labelled near, the bait; the list need not be complete.

B1: MRG15 (endogenous, Drosophila embryos) (protein, UniProt Q9Y0I1 1-424)
chain: MGEVKPAKVENYSTGTDANTLFVDGERVLCFHGPLIYEAKVLKTKPDATPVEYYIHYAGWSKNWDEWVPENRVLKYNDDNVKRRQELARQCGERSKKDNKKGSAKAKKMEQMRNESRASTPSKDSNTSQSTASSTPTTSAGPGSKSEAGSTGTTTTNSTANSTTSRAHRKSTQSTPSTARPGTPSDKKEDPAAAETTEEEGPVAPKKKRMSEQRPSLTGSDVAEKPLPPTTTPSTPTTEPAPCVESEEAYAAKVEVKIKIPDELKHYLTDDWYAVVREHKLLELPAKVTVQQISEQYLAHKKSVKSTSASKEVAINDVLDGIVEYFNVMLGSQLLYKFERTQYADVMQKHPDTPLSELYGSFHLLRLFVRLGSMLSYSALDQQSMQNLLTHVQDFLKFLVKNSSIFFSMSNFINVDPEYVRNAQ
With B1, the binding result with Ash1-CTAP (Drosophila) and with NTAP-Ash1 (Drosophila) was “binds” in each case.
